Values quoted from earlier work in patent US12465564B2, “Oral and nasal compositions and methods of treatment” (AQUESTIVE THERAPEUTICS, INC., priority 2021, dated 2025).

Tests used:
[1] = tested on: seizure threshold; settings: rats; estimated threshold
[2] = oral, following a moderate fat meal, per the Valium label

CN1C(=O)CN=C(c2ccccc2)c2cc(Cl)ccc21 [diazepam]
plasma diazepam concentration associated with an elevation in seizure threshold [1]: ~70 ng/mL

CN1C(=O)CN=C(c2ccccc2)c2cc(Cl)ccc21 [Valium, diazepam]
reduction in AUC [2]: 27%
reduction in Cmax [2]: 20%
